Among the test systems are Arfaptin-1 (human); Asporin (human); Ataxin-3 (human); B3GALT4 (human); B3GALTL (human); B3GNT1 (human); BAG2 (human); BBOX1 (human).
Common to all, as to assay: protein microarray (ProtoArray v5.0), streptavidin-Alexa Fluor 647
Holding throughout (settings): 3'-biotin; 20 mM Tris (pH 7.5), 5 mM MgCl2, 100 mM KCl, 0.1% Tween-20, A/T-rich and random oligonucleotide blockers; temperature not stated; high values mean tight binding

Experiment [1] concerns Annexin-2 receptor (human).
In experiment [2] the test system is Apolipoprotein A-I-binding protein (human).
In experiment [3] the test system is Apolipoprotein A-IV (human).
Experiment [4] deals with Apolipoprotein C-II (human).
The test system of experiment [5] is Apolipoprotein L2 (human).
The test system of experiment [6] is Armadillo repeat-containing protein 6 (human).
Experiment [7] deals with Aromatic-L-amino-acid decarboxylase (human).
In experiment [8] the test system is Autophagy-related protein 3 (human).
Experiment [9] relates to Autophagy-related protein 7 (human).
The test system of experiment [10] is B melanoma antigen 3 (human).
For another experiment, the target named is T1, B3GNT3 (UniProt Q9Y2A9).
T1 sequence: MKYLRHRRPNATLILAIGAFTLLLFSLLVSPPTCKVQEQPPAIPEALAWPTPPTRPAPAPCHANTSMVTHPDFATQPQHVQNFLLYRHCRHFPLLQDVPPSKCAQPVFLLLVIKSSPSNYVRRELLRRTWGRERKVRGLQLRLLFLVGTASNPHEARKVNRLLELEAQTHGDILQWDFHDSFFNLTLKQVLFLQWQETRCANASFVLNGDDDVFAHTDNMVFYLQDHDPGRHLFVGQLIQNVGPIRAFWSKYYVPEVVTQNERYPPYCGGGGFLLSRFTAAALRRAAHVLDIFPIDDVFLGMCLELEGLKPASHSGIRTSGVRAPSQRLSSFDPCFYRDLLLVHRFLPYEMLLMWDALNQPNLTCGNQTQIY

In another experiment the target is T2, BATF2 (UniProt Q8N1L9).
T2 sequence: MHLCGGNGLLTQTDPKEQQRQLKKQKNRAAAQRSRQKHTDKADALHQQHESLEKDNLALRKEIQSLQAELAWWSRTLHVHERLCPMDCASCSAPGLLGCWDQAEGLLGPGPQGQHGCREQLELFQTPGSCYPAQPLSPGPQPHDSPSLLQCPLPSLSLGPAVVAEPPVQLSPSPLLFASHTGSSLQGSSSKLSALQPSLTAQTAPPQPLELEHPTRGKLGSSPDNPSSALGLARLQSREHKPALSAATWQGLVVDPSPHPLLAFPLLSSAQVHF

Several values for one entry are separate records, joined by “and”; a condition that tells them apart may be missing. Identical values can stand only once. Some of the results follow. For some assays here: The source does not settle which construct or isoform was used.

Experimental findings from PMC5996148 are described below.

For the sequence “GGGAGGCTGAGGCAGG [G4-1 biotinylated (PQS2)]”, the binding signal in experiment [1] is -0.36 z-score and -0.349 z-score; in [2], -0.318 z-score; in [3], -0.371 z-score; in experiment [4], -0.35 z-score; in experiment [5] it was -0.353 z-score; in the experiment on Arfaptin-1 (human) it was -0.361 z-score. Also, the binding signal in [6] is -0.349 z-score; in experiment [7], -0.354 z-score; with Asporin (human) it was -0.297 z-score; in the experiment with Ataxin-3 (human), -0.344 z-score; in experiment [8], -0.364 z-score; in experiment [9] it was -0.321 z-score. The binding signal in [10] is -0.343 z-score; with B3GALT4 (human), -0.343 z-score; in the experiment with B3GALTL (human) it was -0.271 z-score; with B3GNT1 (human) it was -0.338 z-score; with B3GNT3 it was -0.255 z-score; in the experiment with BAG2 (human), -0.323 z-score. Further, the binding signal with BATF2 is -0.343 z-score; in the experiment with BBOX1 (human) it was -0.327 z-score.
